Values of other authors, collected in US20100137246A1, “Anti-inflammatory compositions and methods” (Searete LLC, a limited liability corporation of the State …, priority 2008, published 2010).
For at least one compound, name, drawing or mass did not settle the structure.

CCN(CC)C(=S)S [Diethyldithiocarbamate]
toxic: toxicity to malarial parasites (malarial parasites) | toxicity to Leishmania (Leishmania) | toxicity to Giardia (Giardia)
